Assay: general procedure: Fmoc solid-phase peptide synthesis; Fmoc-Tyr(tBu)-Wang resin, 0.50 mmol/g (Wang or 2-chloro resin); DIC/HOBt
Settings: oxidative folding step

linaclotide
oxidative folding yield: 70%
final purity (method not given) (HPLC): 99.5%
